The values below come from PubChem BioAssay AID1487 (National Center for Advancing Translational Sciences (NCATS), 2009).

Some of the results follow. These are further read-outs of the screen, such as a control signal, another cell line or another target. No call is given for them. The list favours compounds with an active or inconclusive main result. The note in brackets gives the kind of curve behind each potency; many fits are weak.

This assay in a line: qHTS Assay for Modulators of Lamin A Splicing. Particulars: HeLa LMNA splicing GFP/RFP minigene ratio, 48 h. In outline:
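S3 HeLa cells stably expressing lamin A-EGFP splicing minigene plus DsRed2, 600 cells/well, 48 h compound exposure at 37C. Laser-scanning cytometry; analysed as GFP (500-530 nm)/RFP (575-640 nm) total intensity ratio; 0.5% DMSO vehicle.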
On the technique in general: Quantitative high-throughput screening tests each substance at several concentrations.

[1] abbreviates: measured here: RFP viability control channel.
[2] abbreviates: measured here: GFP splicing reporter channel.

Usually AC50 stands for the concentration giving half of the maximal activity seen. On to `O=C(COc1ccc(S(=O)(=O)N2CCOCC2)cc1)N1CCCCCC1`, for which the concentration at half-maximal activity (AC50) under setting [1] was 0.00447 µM [falling, full curve, poor fit].
Still for that read-out and setting: for `O=c1c2ccccc2nc2n1CCc1c-2[nH]c2ccccc12` the value was 0.708 µM [falling, full curve, poor fit].
For `O=C(NCCN1CCOCC1)NC1(C(F)(F)F)Oc2ccccc2O1`, the AC50 is, setting by setting: under setting [2], 17.8 µM [rising, single point]; under setting [1], 15.8 µM [rising, single point].
For the molecule `Cc1sc2ncnc(SCC(=O)NNC(=O)c3ccco3)c2c1C`, the concentration at half-maximal activity (AC50) under setting [1] was 1.58 µM [rising, partial curve, poor fit].
As to `CCOc1ccc2nc(NCCNC(=S)NCCCN(C)C)c(C#N)cc2c1`, the AC50 under setting [2] was 1.41 µM [falling, full curve, poor fit].
For `COc1ccc(Cl)cc1NS(=O)(=O)c1c(C)[nH]c(=O)[nH]c1=O`, the AC50 under setting [2] was 12.6 µM [rising, partial curve, poor fit] and the AC50 under setting [1] was 31.6 µM [rising, single point].
As for `COc1ccc(OC)c(C2CC(=O)c3c([nH]c(C(=O)OCC4CCCO4)c3C)C2)c1` (stereo unspecified), under setting [1], the AC50 is 15.8 µM [rising, single point].
For the molecule `COc1ccc(Nc2ncnc3c2nc2n3CCCC2)cc1Cl`, the AC50 under setting [2] is 12.6 µM [falling, partial curve, poor fit].
As to `Cc1ccc(N=c2sc(C)c(C)n2C)cc1`, under setting [1], the AC50 was 20 µM [rising, partial curve, poor fit].
Take `CCOC(=O)c1ccc(/C=C2/C=C(c3ccccc3)N(c3ccc(Cl)c(C(=O)O)c3)C2=O)cc1`: the AC50 by setting is: under setting [2], 10 µM [rising, partial curve]; under setting [1], 12.6 µM [rising, partial curve, poor fit].
Take `Cc1cccc(/C=C(\C(=O)C(=O)O)c2ccc3ccccc3n2)c1`: the half-maximal activity concentration (AC50) under setting [1] was 8.91 µM [rising, partial curve, poor fit].
Consider `CCSc1nc(-c2ccccc2)nc(C(Cl)Cl)n1`, for which the AC50 is, setting by setting: under setting [2], 35.5 µM [falling, single point]; under setting [1], 35.5 µM [falling, single point].
In the case of `CCOc1ccc(OCC)c(NC(=O)CN(C)S(=O)(=O)c2ccc3nc(C)sc3c2)c1`, the AC50 is, setting by setting: under setting [2], 12.6 µM [rising, partial curve, poor fit]; under setting [1], 14.1 µM [rising, partial curve].
Regarding `C=C(C)CN=C1NN=C(c2cc(C)n(-c3ccc(C)cc3)c2C)CS1`, the AC50 under setting [2] was 1.26 µM [rising, full curve, poor fit] and the concentration at half-maximal activity (AC50) under setting [1] was 12.6 µM [rising, partial curve].
As to `CCCS/C(N)=N/N=C/c1cc(C)ccc1O`, the concentration at half-maximal activity (AC50) under setting [2] was 35.5 µM [rising, single point].
